Results are given in words; binding and its absence hold for the method and conditions named. Some results given as binding are weak or reduced against the parent protein; the word gives no strength.
Molecular target: METTL9^46–318 (human) (UniProt Q9H1A3)
Experiment: ITC; METTL9 protein and synthetic peptide; conditions and who was titrated not shown; both purified

Sequences of proteins named here, by UniProt entry; tags and fusion partners are left off. A change or cut given only in a name is not applied to a line headed by its entry. Residues count along the entry.
UniProt Q9H1A3, residues 46-318: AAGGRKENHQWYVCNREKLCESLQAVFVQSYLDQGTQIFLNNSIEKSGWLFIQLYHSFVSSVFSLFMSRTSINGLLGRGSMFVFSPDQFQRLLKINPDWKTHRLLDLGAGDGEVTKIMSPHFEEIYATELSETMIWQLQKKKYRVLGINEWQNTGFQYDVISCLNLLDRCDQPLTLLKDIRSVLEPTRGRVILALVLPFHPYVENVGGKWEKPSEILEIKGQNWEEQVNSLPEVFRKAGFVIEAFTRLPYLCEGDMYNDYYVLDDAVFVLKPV
UniProt Q6ZMH5: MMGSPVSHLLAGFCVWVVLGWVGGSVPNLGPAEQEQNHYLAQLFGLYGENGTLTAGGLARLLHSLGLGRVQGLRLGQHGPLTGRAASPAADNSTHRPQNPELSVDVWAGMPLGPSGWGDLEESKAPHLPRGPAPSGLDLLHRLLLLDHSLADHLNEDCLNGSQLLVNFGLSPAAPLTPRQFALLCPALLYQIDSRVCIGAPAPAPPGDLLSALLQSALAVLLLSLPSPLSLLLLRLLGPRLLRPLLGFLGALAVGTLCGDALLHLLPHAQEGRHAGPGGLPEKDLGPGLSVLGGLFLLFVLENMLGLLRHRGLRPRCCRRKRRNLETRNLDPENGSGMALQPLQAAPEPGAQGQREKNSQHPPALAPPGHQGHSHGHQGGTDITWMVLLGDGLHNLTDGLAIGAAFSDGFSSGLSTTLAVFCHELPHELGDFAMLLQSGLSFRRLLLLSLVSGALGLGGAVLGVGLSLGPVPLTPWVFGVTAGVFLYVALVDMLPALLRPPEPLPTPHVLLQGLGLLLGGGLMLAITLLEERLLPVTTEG
UniProt P31725: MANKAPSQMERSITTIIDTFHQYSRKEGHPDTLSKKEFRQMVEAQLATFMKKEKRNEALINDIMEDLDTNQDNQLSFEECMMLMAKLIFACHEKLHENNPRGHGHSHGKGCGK

binding | Binder
binds | GHQGHSHGHQGGY (peptide, UniProt Q6ZMH5 369-380) [SLC39A5^369–380 peptide]
binds | RGHGHSHGKGC (peptide, UniProt P31725 101-111) [mouse S100A9^101–111 peptide]

Reference: publication PMC10073072
